Source: PubChem BioAssay AID1671195 (Yale University, 2021)
The whole screen tested about 22,000 reagents; this is a random part of them. About 1,510 of all reagents (6.9%) were called active. 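Active includes knockdowns raising or lowering LDL uptake; positive z-scores mean more uptake, negative mean less.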 Unmarked entries are inactive.

Aim: 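Regulators of LDL receptor activity judged by labelled LDL uptake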 (primary screen)
System: human Huh7 hepatoma cells
Reagent: siRNA pool against human genes, 18 nM
Timing: about 2 to 2.5 days of knockdown, then 8 h LDL uptake
Conditions: DiI-labelled LDL at 30 µg/ml for 8 h, in lipoprotein-deficient serum medium
Detection: 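Per-cell DiI-LDL intensity by automated imaging; well means scaled to the plate median and given as a robust z-score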
Scale: robust z-score: higher = more LDL uptake after knockdown
Call rule: 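Active when two or more replicates show a robust z-score above 2 or below -2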

no.	gene	robust z-score, replicate 1	robust z-score, replicate 2	robust z-score, replicate 3
1	LOC392443 (retired record)	-1.04	0.604	0.643
2	DOK3	0.339	-0.807	-0.223
3	KDM3B	-0.366	-1.32	-0.242
4	LINC01623	-0.065	0.601	0.0673
5	STAT3	-1.9	-1.83	-1.98
6	LOC441885 (retired record)	-0.503	-0.37	-0.26
7	TANC2	-1.52	-0.765	-1.69
8	LINC00486	-0.461	-0.519	-0.645
9	TAF1D	0.169	-0.457	-0.162
10	ENOX2	-0.181	-0.504	-0.221
11	ADIRF	-0.429	-0.837	0.423
12	AADACP1	0.309	0.146	0.0532
13	TMEM179B	-1.45	-1.12	-1.59
14	SINHCAF	-0.961	-1.07	-0.987
15	NDUFC2	-0.438	-0.646	-0.853
16	EIF3M	-1.09	-0.347	-0.919
17	LOC727862	-1.07	-1.15	-1.14
18	KLRF1	0.989	0.498	1.96
19	RPSAP27	0.712	1.06	-0.342
20	TMEM167B	-1.06	0.535	-0.809
21	LOC347421 (retired record)	-0.514	-0.463	0.0895
22	CLEC4F	-1.28	-0.769	-1.55
23	PIN4	-0.51	-0.74	-0.479
24	TUSC7	2.37 (active)	2.75	2.03
25	SMIM1	-0.254	-0.412	-0.196

The list goes on, starting with the last 3 of the part before.
no.	gene	robust z-score, replicate 1	robust z-score, replicate 2	robust z-score, replicate 3
23	PIN4	-0.51	-0.74	-0.479
24	TUSC7	2.37 (active)	2.75	2.03
25	SMIM1	-0.254	-0.412	-0.196
26	LAMA5	2.41 (active)	2.19	1.14
27	ADAMTSL4-AS1	0.829	0.907	0.626
28	GOLGA8A	-0.479	2.28	-1.17
29	VDR	0.471	-0.567	-0.536
30	HDAC2	-0.975	-0.655	-0.996
31	COPZ2	2.13 (active)	2.04	1.32
32	TBX5	3.8 (active)	4.33	4
33	ADAMTS15	2.02	1.23	1.63
34	NARS1	1.2	1.6	2.02
35	RMP64	0.182	1.24	0.542
36	IKBKE-AS1	1.42	1.44	1.08
37	ENPP6	0.854	1.11	2.2
38	LOC442431 (retired record)	-0.192	-0.247	-0.295
39	LOC400953 (retired record)	-0.708	-0.621	-0.937
40	ADCY9	-0.419	0.103	-0.369
41	SNAI3-AS1	-0.634	-0.0655	-0.785
42	KLF3-AS1	-0.115	0.27	-0.0874
43	H2AC21	-0.52	-0.636	-0.563
44	ACADSB	0.658	0.242	0.12
45	H1-3	-1.03	-0.693	-1.11
46	LOC387631 (retired record)	-0.831	-0.693	-1.18
47	INTS12	-0.699	-0.399	-0.353
48	APOA1	0.555	0.892	0.749
49	C1orf159	0.0751	-0.307	-0.993
50	AKAP17BP	-0.0595	-0.661	-0.798
51	PLAC8	2.23	-0.283	-0.607
52	SURF1	1.01	-1.38	-0.218
53	ENGASE	-0.793	-0.612	-0.61
54	OR4D10	1.11	1.19	0.595
55	DSCC1	0.357	-0.358	0.426
56	C1GALT1	-0.29	0.227	-0.468
57	ENPP4	-1.03	-0.463	-0.862
58	ANKRD29	0.0348	-0.541	0.0217
59	MYO3B	-0.844	-1.1	-0.834
60	RPS14	-0.808	-1.83	0.337
61	LOC391570 (retired record)	1.4	0.935	1.09
62	PIH1D2	-0.62	-0.661	-1.43
63	LOC400576 (retired record)	0.296	0.912	1.07
64	INHBA	1.83	0.58	0.791
65	ADAT3	-1.17	0.0142	-0.191
66	LSM14B	-0.744	0.423	0.36
67	SLC35F4	0.63	0.565	0.883
68	IGHV3OR16-13	0.0408	-2.34	0.0595
